Experimental findings from publication PMC4643126, “On the Ancestral UDP-Glucose Pyrophosphorylase Activity of GalF from Escherichia coli” (Frontiers in Microbiology, 2015) are described below.

The target in test [1] is His-tagged GalF from Escherichia coli (Escherichia coli K-12) (UniProt P0AAB6). Nature of the test: SEC; purified enzyme diluted fivefold (final 5 mg/ml) with 100 mM Tris-HCl pH 8.0, incubated 30 min at 4°C, then gel filtration; both purified. (In general: Size exclusion chromatography separates by hydrodynamic size, large species first.)
Test [2] has the same target. Briefly: SEC; purified enzyme diluted fivefold (final 5 mg/ml) with 100 mM HEPES-NaOH pH 8.0, incubated 30 min at 4°C, then gel filtration; both purified.
Test [3] shares this target. Briefly: SEC; gel filtration of the purified protein on Superdex 200 HR 10/30 in 25 mM Tris-HCl pH 8.0, 100 mM NaCl, 0.1 mM EDTA; mass from a calibration plot of standards; both purified.
Test [4] deals with GalF_(K198A) (Escherichia coli K-12) (UniProt P0AAB6). Described as above.
The target in test [5] is GalF_(M15T/H16R) (Escherichia coli K-12) (UniProt P0AAB6). The test is described as above.

No constants are given. Whether binding was seen depends on the method and setting. For some assays here: Sequences can lack the tags named with a protein.

B1: His-tagged GalF from Escherichia coli (protein, UniProt P0AAB6 1-297)
chain: MTNLKAVIPVAGLGMHMLPATKAIPKEMLPIVDKPMIQYIVDEIVAAGIKEILLVTHASKNAVENHFDTSYELESLLEQRVKRQLLAEVQSICPPGVTIMNVRQGEPLGLGHSILCARPAIGDNPFVVVLPDVVIDDASADPLRYNLAAMIARFNETGRSQVLAKRMPGDLSEYSVIQTKEPLDREGKVSRIVEFIEKPDQPQTLDSDIMAVGRYVLSADIWPELERTQPGAWGRIQLTDAIAELAKKQSVDAMLMTGDSYDCGKKMGYMQAFVKYGLRNLKEGAKFRKGIEKLLSE
In the case of B1, the binding result is on record as “no binding (tested: 5 mg/ml)” in test [1], “no binding (tested: 5 mg/ml)” in test [2] and “no binding” in test [3].

B2: GalF_(K198A) (protein, UniProt P0AAB6 1-297)
chain: MTNLKAVIPVAGLGMHMLPATKAIPKEMLPIVDKPMIQYIVDEIVAAGIKEILLVTHASKNAVENHFDTSYELESLLEQRVKRQLLAEVQSICPPGVTIMNVRQGEPLGLGHSILCARPAIGDNPFVVVLPDVVIDDASADPLRYNLAAMIARFNETGRSQVLAKRMPGDLSEYSVIQTKEPLDREGKVSRIVEFIEAPDQPQTLDSDIMAVGRYVLSADIWPELERTQPGAWGRIQLTDAIAELAKKQSVDAMLMTGDSYDCGKKMGYMQAFVKYGLRNLKEGAKFRKGIEKLLSE
For the molecule B2, the binding entry in test [4] is recorded as “no binding”.

B3: GalF_(M15T/H16R) (protein, UniProt P0AAB6 1-297)
chain: MTNLKAVIPVAGLGTRMLPATKAIPKEMLPIVDKPMIQYIVDEIVAAGIKEILLVTHASKNAVENHFDTSYELESLLEQRVKRQLLAEVQSICPPGVTIMNVRQGEPLGLGHSILCARPAIGDNPFVVVLPDVVIDDASADPLRYNLAAMIARFNETGRSQVLAKRMPGDLSEYSVIQTKEPLDREGKVSRIVEFIEKPDQPQTLDSDIMAVGRYVLSADIWPELERTQPGAWGRIQLTDAIAELAKKQSVDAMLMTGDSYDCGKKMGYMQAFVKYGLRNLKEGAKFRKGIEKLLSE
As to B3, the binding entry in test [5] is “no binding”.
